{"source": "patent US12629375B2", "about": "“Compounds with anti-tumor activity against cancer cells bearing HER2 exon 21 insertions” (Board of Regents, The University of Texas System, priority 2019, dated 2026)", "origin": "cited, not measured here", "tested_on": "patients with exon 20 insertion positive NSCLC", "conditions": "two separate studies; cited from earlier work", "note": "For at least one compound, name, drawing or mass did not settle the structure.", "data": [{"smiles": "CN(C)C/C=C/C(=O)Nc1cc2c(Nc3ccc(F)c(Cl)c3)ncnc2cc1O[C@H]1CCOC1", "note": "[afatinib]", "values": [{"measurement": "response rate", "value": "18.2%-18.8%"}]}]}
